In the supplement of paper PMC10849652:
Some of the results follow.

Amino acid sequences for entries named in this document (tags omitted). A change or cut given only in a name is not applied to a line headed by its entry.
UniProt Q86XR7, whole entry, looked up: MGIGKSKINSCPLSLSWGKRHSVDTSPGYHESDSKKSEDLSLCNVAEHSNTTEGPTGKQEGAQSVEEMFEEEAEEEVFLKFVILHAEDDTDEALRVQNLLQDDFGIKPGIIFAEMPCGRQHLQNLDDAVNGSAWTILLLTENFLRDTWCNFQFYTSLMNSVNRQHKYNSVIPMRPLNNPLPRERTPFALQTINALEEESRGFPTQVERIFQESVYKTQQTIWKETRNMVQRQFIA
UniProt Q9UM00: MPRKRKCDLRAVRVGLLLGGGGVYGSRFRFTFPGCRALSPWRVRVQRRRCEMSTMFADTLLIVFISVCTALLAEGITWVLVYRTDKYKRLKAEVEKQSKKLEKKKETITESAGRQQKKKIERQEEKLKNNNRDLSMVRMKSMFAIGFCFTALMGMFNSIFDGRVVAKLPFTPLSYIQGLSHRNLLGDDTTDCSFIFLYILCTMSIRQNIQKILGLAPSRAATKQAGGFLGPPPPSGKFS
UniProt O43493: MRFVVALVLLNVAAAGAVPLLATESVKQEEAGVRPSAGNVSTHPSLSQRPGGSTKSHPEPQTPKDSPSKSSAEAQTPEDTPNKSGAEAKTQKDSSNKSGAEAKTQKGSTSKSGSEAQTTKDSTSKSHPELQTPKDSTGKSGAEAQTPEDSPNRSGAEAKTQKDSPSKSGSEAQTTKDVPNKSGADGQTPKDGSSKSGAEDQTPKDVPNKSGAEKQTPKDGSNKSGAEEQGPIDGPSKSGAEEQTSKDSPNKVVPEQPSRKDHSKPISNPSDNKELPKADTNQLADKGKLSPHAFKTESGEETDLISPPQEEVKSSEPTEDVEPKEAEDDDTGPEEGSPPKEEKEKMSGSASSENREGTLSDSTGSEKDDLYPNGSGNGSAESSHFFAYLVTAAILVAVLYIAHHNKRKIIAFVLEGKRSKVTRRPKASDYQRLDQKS
UniProt Q969X1: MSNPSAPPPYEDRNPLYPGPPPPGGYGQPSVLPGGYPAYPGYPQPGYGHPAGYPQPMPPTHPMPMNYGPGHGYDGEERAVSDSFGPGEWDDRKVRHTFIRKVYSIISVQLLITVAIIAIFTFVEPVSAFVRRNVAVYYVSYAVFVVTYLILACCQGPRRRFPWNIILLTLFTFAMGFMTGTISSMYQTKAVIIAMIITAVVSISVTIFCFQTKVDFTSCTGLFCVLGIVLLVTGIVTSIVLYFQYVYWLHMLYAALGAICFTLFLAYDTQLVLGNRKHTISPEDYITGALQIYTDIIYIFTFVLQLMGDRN
UniProt Q9NPL8: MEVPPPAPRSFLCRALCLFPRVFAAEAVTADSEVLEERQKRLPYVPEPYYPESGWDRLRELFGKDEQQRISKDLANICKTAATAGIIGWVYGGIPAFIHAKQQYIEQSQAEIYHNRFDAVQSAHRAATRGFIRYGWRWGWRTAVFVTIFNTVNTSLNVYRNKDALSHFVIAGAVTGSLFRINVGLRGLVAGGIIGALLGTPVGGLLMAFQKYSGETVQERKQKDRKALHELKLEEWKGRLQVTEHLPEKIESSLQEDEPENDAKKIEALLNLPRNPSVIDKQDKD
UniProt Q9UDY2: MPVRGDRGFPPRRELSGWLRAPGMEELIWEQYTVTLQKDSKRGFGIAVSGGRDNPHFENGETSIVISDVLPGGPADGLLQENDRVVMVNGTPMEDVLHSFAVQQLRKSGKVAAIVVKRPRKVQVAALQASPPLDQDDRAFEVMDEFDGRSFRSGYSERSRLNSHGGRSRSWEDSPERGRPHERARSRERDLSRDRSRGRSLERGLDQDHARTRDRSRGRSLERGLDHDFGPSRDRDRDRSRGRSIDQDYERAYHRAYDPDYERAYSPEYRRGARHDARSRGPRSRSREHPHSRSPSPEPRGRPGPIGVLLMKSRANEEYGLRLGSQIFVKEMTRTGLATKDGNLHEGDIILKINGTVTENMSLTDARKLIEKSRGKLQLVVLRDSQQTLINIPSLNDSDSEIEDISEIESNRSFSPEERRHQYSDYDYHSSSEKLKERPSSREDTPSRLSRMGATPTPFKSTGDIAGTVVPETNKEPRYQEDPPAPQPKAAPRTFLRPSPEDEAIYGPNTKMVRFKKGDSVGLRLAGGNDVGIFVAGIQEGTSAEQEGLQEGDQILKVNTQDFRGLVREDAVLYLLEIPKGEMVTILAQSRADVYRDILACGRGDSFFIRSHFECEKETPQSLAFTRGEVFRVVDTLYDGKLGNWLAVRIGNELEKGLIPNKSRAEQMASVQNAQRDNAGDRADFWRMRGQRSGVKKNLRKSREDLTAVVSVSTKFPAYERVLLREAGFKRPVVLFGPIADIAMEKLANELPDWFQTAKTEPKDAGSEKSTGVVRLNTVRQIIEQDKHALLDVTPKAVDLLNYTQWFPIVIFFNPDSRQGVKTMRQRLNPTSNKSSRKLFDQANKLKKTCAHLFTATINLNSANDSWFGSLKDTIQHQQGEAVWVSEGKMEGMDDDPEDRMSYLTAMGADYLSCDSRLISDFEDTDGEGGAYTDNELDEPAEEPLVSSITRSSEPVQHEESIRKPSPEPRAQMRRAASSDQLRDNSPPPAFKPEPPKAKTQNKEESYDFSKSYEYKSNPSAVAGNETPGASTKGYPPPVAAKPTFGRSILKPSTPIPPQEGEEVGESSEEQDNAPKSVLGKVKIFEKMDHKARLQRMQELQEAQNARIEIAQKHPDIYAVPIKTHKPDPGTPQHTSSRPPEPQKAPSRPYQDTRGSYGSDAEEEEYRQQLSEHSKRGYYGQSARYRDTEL
UniProt Q8IYQ7: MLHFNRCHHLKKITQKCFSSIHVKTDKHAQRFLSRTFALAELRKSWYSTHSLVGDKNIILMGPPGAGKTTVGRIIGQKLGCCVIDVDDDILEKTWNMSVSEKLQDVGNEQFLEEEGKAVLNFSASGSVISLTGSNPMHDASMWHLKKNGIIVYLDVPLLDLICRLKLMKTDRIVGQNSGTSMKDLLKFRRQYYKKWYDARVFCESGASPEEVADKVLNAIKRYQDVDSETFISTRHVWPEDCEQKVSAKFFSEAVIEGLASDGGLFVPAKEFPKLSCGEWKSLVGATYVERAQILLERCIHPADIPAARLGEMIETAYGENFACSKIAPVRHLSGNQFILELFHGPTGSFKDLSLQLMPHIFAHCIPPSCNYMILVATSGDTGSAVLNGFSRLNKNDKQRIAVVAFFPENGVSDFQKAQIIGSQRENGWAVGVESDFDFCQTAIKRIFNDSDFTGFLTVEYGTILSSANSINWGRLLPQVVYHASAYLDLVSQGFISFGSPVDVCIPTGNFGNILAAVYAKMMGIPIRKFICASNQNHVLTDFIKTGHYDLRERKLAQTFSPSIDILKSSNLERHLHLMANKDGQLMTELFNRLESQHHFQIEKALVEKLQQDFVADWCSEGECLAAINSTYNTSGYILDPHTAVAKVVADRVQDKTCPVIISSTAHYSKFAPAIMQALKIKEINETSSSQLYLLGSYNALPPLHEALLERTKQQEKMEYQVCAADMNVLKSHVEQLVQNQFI
UniProt P55061, whole entry, looked up: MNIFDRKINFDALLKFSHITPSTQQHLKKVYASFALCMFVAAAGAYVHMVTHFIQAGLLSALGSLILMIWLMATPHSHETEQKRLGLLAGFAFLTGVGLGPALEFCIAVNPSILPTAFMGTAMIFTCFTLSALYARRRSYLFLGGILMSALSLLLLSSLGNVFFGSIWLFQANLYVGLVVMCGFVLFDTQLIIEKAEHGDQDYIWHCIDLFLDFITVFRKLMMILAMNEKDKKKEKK
UniProt P52888, whole entry, looked up: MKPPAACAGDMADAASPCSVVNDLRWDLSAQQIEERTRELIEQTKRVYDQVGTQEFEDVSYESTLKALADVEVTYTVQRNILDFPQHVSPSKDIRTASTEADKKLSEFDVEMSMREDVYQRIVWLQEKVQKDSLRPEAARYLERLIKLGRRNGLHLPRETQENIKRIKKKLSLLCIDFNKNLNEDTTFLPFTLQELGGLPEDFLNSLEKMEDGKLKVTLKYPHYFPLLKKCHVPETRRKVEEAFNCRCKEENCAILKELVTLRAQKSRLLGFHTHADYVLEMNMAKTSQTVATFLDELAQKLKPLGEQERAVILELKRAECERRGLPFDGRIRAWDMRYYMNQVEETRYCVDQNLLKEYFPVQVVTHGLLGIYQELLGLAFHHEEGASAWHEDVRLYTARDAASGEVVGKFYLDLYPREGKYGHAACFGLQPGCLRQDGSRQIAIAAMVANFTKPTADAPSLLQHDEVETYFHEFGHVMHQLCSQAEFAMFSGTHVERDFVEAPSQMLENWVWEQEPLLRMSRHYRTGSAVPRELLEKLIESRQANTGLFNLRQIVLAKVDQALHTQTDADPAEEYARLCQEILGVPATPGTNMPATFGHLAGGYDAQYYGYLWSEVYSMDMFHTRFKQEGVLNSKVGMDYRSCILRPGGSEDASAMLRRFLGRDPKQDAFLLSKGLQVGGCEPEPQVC
UniProt Q96DC7: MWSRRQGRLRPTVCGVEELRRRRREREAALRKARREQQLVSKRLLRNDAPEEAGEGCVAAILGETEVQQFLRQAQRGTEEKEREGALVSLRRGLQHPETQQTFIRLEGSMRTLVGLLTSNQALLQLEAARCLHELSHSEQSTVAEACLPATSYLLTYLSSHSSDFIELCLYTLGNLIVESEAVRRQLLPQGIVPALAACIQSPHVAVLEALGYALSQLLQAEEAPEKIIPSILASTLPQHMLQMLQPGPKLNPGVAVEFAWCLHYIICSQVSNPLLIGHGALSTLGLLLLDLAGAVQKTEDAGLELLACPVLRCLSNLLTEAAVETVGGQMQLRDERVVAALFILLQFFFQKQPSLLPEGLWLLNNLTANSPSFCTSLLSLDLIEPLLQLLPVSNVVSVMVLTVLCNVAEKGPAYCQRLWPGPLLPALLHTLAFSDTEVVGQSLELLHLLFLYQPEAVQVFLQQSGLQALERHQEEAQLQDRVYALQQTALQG
UniProt Q9BVC6: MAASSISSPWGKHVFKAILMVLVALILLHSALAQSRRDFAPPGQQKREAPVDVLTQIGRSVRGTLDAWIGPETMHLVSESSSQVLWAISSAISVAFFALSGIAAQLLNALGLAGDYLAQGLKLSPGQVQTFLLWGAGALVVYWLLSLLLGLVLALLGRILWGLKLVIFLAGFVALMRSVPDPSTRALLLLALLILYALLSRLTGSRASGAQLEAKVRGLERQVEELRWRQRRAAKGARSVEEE
UniProt Q13769: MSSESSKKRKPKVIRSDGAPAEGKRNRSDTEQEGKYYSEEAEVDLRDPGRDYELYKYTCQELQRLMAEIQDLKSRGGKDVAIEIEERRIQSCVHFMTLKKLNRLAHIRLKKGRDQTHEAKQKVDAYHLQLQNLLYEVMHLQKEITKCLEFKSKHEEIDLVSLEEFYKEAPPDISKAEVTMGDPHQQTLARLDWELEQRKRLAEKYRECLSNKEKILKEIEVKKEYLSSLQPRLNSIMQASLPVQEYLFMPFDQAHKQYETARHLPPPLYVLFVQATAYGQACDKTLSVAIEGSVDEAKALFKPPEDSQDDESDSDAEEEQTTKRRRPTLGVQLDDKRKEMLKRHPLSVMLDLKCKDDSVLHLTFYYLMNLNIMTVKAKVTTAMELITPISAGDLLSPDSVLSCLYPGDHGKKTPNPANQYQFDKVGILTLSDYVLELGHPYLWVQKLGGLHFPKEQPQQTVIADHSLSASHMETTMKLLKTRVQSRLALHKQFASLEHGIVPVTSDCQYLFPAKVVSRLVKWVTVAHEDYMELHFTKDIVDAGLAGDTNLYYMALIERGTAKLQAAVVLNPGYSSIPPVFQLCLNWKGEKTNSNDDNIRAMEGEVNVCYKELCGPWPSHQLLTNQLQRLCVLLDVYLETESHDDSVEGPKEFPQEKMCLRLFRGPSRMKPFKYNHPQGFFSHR
UniProt Q04727: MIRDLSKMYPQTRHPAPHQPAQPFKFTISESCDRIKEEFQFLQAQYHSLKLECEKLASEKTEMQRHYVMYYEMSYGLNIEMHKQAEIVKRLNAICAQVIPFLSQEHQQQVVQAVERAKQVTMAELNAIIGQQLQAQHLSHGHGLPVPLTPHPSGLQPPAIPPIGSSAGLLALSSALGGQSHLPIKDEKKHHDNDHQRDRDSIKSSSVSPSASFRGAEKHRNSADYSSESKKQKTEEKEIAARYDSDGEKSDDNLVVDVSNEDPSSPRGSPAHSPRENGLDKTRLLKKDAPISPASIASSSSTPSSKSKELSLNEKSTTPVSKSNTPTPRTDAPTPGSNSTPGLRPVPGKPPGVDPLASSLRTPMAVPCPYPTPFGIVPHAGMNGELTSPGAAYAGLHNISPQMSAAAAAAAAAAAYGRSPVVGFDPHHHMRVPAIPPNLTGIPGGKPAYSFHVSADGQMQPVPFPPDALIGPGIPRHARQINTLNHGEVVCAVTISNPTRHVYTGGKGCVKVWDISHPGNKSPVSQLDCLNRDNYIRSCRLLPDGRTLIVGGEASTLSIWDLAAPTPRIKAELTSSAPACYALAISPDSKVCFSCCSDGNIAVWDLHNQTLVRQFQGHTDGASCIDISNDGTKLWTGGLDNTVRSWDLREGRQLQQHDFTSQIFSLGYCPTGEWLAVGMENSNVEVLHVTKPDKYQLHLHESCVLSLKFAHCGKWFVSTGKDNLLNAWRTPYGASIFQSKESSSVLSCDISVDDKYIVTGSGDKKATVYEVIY

compound: COc1cc(Nc2ncc3c(n2)-c2ccc(Cl)cc2C(c2c(F)cccc2OC)=NC3)ccc1C(=O)O [alisertib]; assay: log2 fold change, soluble protein after heating vs DMSO (PISA); higher = thermal stabilisation; K562 lysate, 10 uM; active = over 0.2 and 3.5 SD of the protein, either way, in both replicates (recomputed)
Method in brief: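 K562 pellets were dounce-homogenised in PBS pH 7.4 with 1 mM MgCl2, and the crude extract at 1 mg/mL protein was treated with 10 μM compound for 30 min. Aliquots were heated for 3 min across 48°C-58°C, pooled, and brought to 0.5% NP-40 at 4°C; soluble protein was the supernatant after 21,000xg for 90 min. Soluble protein was quantified by TMTpro 16plex LC-MS/MS with channel sums equalised, and reported as log2 fold change in thermal stability against DMSO controls, with values from duplicates.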

log2 fold change, inactive:
TICAM2 isoform 2 (UniProt Q86XR7) 0.029
THUMPD2 (UniProt Q9BTF0) -0.057
TMCO1 (UniProt Q9UM00) 0.025
TGOLN2 isoform 7 (UniProt O43493) -0.059
TMBIM1 (UniProt Q969X1) 0.05
TMEM120A (UniProt Q9BXJ8) -0.048
TIMMDC1 (UniProt Q9NPL8) -0.108
TIMM23 (UniProt O14925) -0.055
TJP2 isoform 7 (UniProt Q9UDY2) -0.028
TMEM185B (UniProt Q9H7F4) -0.066
TM9SF4 (UniProt Q92544) 0.019
TMEM168 (UniProt Q9H0V1) 0.027
TMEM164 (UniProt Q5U3C3) -0.075
THYN1 (UniProt Q9P016) -0.008
THNSL1 (UniProt Q8IYQ7) -0.033
TMBIM6 isoform 2 (UniProt P55061) -0.016
THOP1 (UniProt P52888) 0.001
TMCO6 isoform 2 (UniProt Q96DC7) -0.132
TMEM109 (UniProt Q9BVC6) -0.011
THOC5 (UniProt Q13769) 0.059
THOC1 (UniProt Q96FV9) -0.011
TLE4 isoform 3 (UniProt Q04727) 0.037

Reprinted from the results shown (6 entries):
log2 fold change, inactive:
TMEM164 (UniProt Q5U3C3) -0.075
THYN1 (UniProt Q9P016) -0.008
THNSL1 (UniProt Q8IYQ7) -0.033
TMBIM6 isoform 2 (UniProt P55061) -0.016
THOP1 (UniProt P52888) 0.001
TMCO6 isoform 2 (UniProt Q96DC7) -0.132
